Experimental data published in publication PMC5601995.

Biological target: adam13 (endogenous adam13 protein of Xenopus laevis embryos) (Xenopus laevis (endogenous in embryos))
Assay: co-IP; Xenopus laevis embryos injected at the one-cell stage with mRNA, alone or with the adam13 morpholino MO13; extracted in 1XMBS with 1% Triton-X100, protease phosphatase inhibitors and 5 mM EDTA; adam13 precipitated with goat polyclonal g821 on protein A/G-agarose; blotted for Flag (M2) or myc (9E10)

binding: binds
B1: arid3a-flag (protein, UniProt Q6GQD7 1-539)
chain: MKLQAVMETLQRQQRARLQQELEARQLQQDSSEGRTPPSAGYPGNGSDEAEPEALKIQRAQAAALAAMRAAAAGLSQQPSPAASEEEDGESMASDEEDEKERDGESERYQDMASEEEDLKGKWDEDDFEDEGEDEYEDMEEGIGVNEAGRVGKGSTLPPKHSSQQAFPSQRSQGAERAGLPLSGHPQLQDHGDWTYEEQFKQLYELDGDPKRKEFLDDLFSFMQKRGTPVNRIPIMAKQVLDLYMLYVLVTEKGGLVEVINKKLWREITKGLNLPTSITSAAFTLRTQYMKYLYPYECEKRGLSNPNELQAAIDSNRREGRRQSFGGTLFTYSPSGAPSMLSSPKLQVSGLSLGGAALNGSTLSSMQKIKKEEDSPISLAMPPRIPVTLAGHSMVAAQVAAQAAALEQLREKLESGEPPEKKMALGSEEQQRIIQRTIQHNLLAMTAQLPMNIRINSQAEGRQDSAVNLTTNGTNSISMSVELNGIVYTGVLFAQPPTSASGTSKGSSNRTGSIGGGSSNSQAAPPSTPSAPNSNNPSP

These are yes or no findings as the source states them, for the method shown. Binding seen in cells or lysates may run through a third protein. Binding calls can cover weak binding; strength is not graded here. Where a sequence is shown, tags or fusion partners need not be part of it.
